The target in the test is Alpha 2B receptor (Homo sapiens, UniProt P18089). The experiment in a line: RSAT (Receptor Selection and Amplification Technology) assay, alpha 2B. On the procedure: 76, pp. 308-311 (incorporated herein by reference) and is also described below.
The RSAT assay measures a receptor-mediated loss of contact inhibition that results in selective proliferation of receptor-containing cells in a mixed population of confluent cells. The increase in cell number is assessed with an appropriate transfected marker gene such as β-galactosidase, the activity of which can be easily measured in a 96-well format. Receptors that activate the G protein, Gq, elicit this response. Alpha 2 receptors, which normally couple to Gi, activate the RSAT response when coexpressed with a hybrid Gq protein that has a Gi receptor recognition domain, called Gq/i5.
NIH-3T3 cells are plated at a density of 2×10^6 cells in 15 cm dishes and maintained in Dulbecco's modified Eagle's medium supplemented with 10% calf serum. […] After washing with phosphate-buffered saline, β-galactosidase enzyme activity is determined by adding 200 μL of the chromogenic substrate (consisting of 3.5 mM o-nitrophenyl-β-D-galactopyranoside and 0.5% nonidet P-40 in phosphate buffered saline), incubating overnight at 30° C. and measuring optical density at 420 nm. The absorbance is a measure of enzyme activity, which depends on cell number and reflects a receptor-mediated cell proliferation. […]

The chains behind the UniProt entries cited, without tags or fusion partners.
UniProt P18089, whole entry: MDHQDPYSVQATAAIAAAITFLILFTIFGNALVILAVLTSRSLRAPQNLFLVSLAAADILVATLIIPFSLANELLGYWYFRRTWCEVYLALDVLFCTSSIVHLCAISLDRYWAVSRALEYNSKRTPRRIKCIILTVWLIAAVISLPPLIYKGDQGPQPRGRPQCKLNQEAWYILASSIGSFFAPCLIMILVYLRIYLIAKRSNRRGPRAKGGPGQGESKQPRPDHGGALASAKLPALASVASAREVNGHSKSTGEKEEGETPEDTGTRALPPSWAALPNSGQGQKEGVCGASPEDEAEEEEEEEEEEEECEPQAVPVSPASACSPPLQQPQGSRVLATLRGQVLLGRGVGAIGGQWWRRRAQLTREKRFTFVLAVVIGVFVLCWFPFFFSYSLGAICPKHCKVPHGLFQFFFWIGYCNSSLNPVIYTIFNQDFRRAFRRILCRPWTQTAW

Molecules are shown by their SMILES. The match of structure and compound is tentative.

Experimental findings from patent US20090239918A1, “SELECTIVE SUBTYPE ALPHA 2 ADRENERGIC AGENTS AND METHODS FOR USE THEREOF” (ALLERGAN, INC., priority 2008, published 2009) are described below.

What is called EC50 is the concentration needed to bring the measured effect to its halfway point. As to `Clc1cccc(C(Cc2ccccc2Br)NC2=NCCN2)c1` (centres unmarked), the “RSAT (rel eff) Alpha 2B, intrinsic activity” value (ratio of maximal effect of the drug to maximal effect of standard full agonist brimonidine) turned out to be 0.84. Also, where the note is “read-out: RSAT EC50 (nM) Alpha 2B, NIH-3T3 cells cotransfected with receptor and Gq/i5, na = not active”, the EC50 came to 0.66 nM.
